According to paper PMC7315810:
These are yes or no findings as the source states them, for the method shown. Binding calls can cover weak binding; strength is not graded here.

Target: T1, MRTF-A (myocardin-related transcription factor A), endogenous in macrophages (mouse (endogenous in RAW264 and BMDMs)) (UniProt Q8K4J6)
T1 sequence: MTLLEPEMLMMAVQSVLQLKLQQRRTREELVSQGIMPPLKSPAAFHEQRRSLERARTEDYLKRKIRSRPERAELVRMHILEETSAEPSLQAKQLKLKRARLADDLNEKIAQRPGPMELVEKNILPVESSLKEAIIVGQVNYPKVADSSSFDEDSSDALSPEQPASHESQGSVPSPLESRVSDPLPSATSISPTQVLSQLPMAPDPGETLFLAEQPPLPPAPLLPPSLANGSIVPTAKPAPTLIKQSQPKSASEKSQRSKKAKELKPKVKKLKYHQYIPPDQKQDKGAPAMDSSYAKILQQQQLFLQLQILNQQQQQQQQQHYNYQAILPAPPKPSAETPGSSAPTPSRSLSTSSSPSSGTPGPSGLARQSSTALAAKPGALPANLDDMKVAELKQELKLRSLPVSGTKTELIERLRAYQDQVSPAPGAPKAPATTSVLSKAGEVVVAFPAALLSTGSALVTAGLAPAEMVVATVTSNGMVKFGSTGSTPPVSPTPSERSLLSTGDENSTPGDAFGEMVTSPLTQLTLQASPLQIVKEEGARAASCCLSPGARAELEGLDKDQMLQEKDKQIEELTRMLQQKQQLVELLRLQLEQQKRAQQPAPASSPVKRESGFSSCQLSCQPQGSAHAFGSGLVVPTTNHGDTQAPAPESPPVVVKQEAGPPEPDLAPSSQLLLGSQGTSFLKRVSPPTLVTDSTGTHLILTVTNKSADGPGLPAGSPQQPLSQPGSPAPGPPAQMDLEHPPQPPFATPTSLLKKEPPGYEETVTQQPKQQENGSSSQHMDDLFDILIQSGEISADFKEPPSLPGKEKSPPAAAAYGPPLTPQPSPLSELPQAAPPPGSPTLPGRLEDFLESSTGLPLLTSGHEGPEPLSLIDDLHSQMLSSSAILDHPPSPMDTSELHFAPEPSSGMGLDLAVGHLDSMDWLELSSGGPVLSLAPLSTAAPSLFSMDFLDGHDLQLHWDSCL
Assay: Re-ChIP; RAW264 cells or primary BMDMs exposed to hypoxia-reoxygenation; Re-ChIP with indicated antibodies; iNOS promoter (GAPDH promoter as control)

For “NF-κB, endogenous in macrophages (mouse (endogenous in RAW264 and BMDMs))”, which binding is on record?
Its binding is “binds”.
